Source: PubChem BioAssay AID2551 (National Center for Advancing Translational Sciences (NCATS), 2010)
Where “and” joins values, the source holds several entries; their conditions need not be identical. Equal values may be shown once. Among all 310,000 compounds or so, about 17,000 (5.5%) were called active. The inconclusive results got no clear call from the source; some entries with a clear call stand among them for comparison. The call rests on the fitted dose curve; in most records, active means well fitted inhibition curve with a large enough effect; inconclusive means small, poorly fitted or top-dose-only effect, or effect the other way; inactive means no such curve, though single readings can be large or run the other way. Potencies beside an inconclusive call are fits to weak or partial responses and may not hold up.

The chains behind the UniProt entries cited, without tags or fusion partners. Where a name states a change or a piece, a line headed by the entry shows the natural chain unless it says otherwise.
UniProt P51450: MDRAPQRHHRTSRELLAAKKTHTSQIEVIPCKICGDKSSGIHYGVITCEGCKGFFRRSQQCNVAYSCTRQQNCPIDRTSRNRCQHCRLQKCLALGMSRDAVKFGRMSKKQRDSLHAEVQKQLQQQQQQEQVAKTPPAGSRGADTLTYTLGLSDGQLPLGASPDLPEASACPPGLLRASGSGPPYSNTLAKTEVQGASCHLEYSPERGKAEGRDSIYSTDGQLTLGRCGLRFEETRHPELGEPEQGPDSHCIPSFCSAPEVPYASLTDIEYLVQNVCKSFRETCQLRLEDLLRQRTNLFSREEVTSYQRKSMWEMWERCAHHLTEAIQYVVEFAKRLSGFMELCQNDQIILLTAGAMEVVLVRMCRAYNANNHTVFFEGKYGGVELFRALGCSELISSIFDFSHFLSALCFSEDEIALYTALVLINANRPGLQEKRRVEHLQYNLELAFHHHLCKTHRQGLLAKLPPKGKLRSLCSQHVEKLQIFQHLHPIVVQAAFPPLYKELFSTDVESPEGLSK

Target: Nuclear receptor ROR-gamma (Mus musculus) (UniProt P51450)
Assay: qHTS for inhibitors of ROR gamma transcriptional activity; further: nearly all actives have a fitted effect of over 60% in size
Conditions: Drosophila S2 Gal4-RORgamma UAS-luciferase reporter, 20 h; activity change, negative = inhibition: at 53.6 µM (top of the series)
In short: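 Luminescence from a UAS-regulated Photinus luciferase reporter in stably transfected Drosophila Schneider cells is measured; decreased signal marks ROR gamma inhibition. Fusion expression is induced by 700 uM copper sulfate for 20 hr.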
On the % scale 0 is the no-effect control and ±100 the full control effect; potency means the concentration at half of the fitted maximal effect.

Activity change, negative = inhibition, inactive:
COc1cccc(C(=O)OCC(=O)Nc2cc(C)c(C)cc2[N+](=O)[O-])c1 14.8%
CCOc1cc(S(=O)(=O)n2cc(-c3ccc(F)cc3)c(N)n2)cc(OCC)c1OCC -32.3%
COc1ccccc1OS(=O)(=O)c1ccc(NC(C)=O)cc1 1.91%
Cc1cc(C)c(NC(=O)C2CCN(C(=O)c3ccco3)CC2)c(C)c1 -23.1%
O=C(Cn1nnc(-c2ccccc2NC(=O)c2ccccc2)n1)Nc1ccc2c(c1)OCCO2 -19.3%
Cc1occc1C(=O)Nc1nnc(C(F)(F)F)s1 33.5%
O=C(O)CCSc1nnc(CNc2ccc(Cl)cc2)n1Cc1ccccc1 -1.46%
O=C(CCc1ccccc1)NCc1ccccn1 -18.6%
O=C(CCCN1C(=O)/C(=C\c2ccccc2)SC1=S)Nc1ccc(C(=O)O)cc1 -4.93%
c1ccc2c(c1)CCN(C1CCCCC1)C2 7.56%
O=C(O)c1ccc(NC(=S)NC(=O)c2ccc(-c3ccccc3)cc2)cc1 12.8%
CCCC1=NN(c2ccc([N+](=O)[O-])cc2)C(=O)/C1=C\N(C)C 21.4%
O=C1CSC(=S)N1N=C1CCCCCC1 -12.2%
O=C(Nc1ccc(F)c(Cl)c1)c1ccc2c(=O)n3c(nc2c1)CCCCC3 31.2%
CCNC(=S)N(CCc1c(C)[nH]c2ccccc12)Cc1cc(OC)c(OC)c(OC)c1 -20.1%
O=C(CSc1nc(C2CC2)nc2ccccc12)N1CCCCC1 31.6%
O=C(CSc1ncn[nH]1)Nc1ccccc1Sc1ccccc1 21.6%
CCOC(=O)c1ccc(C#Cc2ccc3c(c2)C(C)(C)CCS3)nc1 0.111%

Potency, inconclusive:
COc1ccc(-c2cc(CS(=O)(=O)c3ccccc3)on2)cc1 11.2 µM [activator, partial curve, poor fit]
Cc1nc(NC(=O)C23CC4CC(CC(C4)C2)C3)sc1Cc1ccc2c(c1)OCO2 10 µM [inhibitor, partial curve, poor fit]
CCOn1c(=O)c(C)[n+]([O-])c2ccccc21 6.31 µM [inhibitor, single point]
c1ccc(Nc2nc(CSc3ncn[nH]3)cs2)cc1 35.5 µM [inhibitor, single point]
OCc1cc([C@@H](O)CNCCCCCCOCCCCc2ccccc2)ccc1O 35.5 µM [inhibitor, single point]
Cc1ccc(-c2nnn(CC(=O)N(Cc3cccs3)C(C(=O)NC(C)(C)C)c3ccc(C)o3)n2)o1 (stereo not drawn) 2.24 µM [inhibitor, single point]
COc1ccc(Nc2nc(-c3ccccc3)c(C(=O)Nc3cccnc3)s2)cc1 25.1 µM [activator, single point]
Cc1cc(=O)oc2ccc(OCC(=O)N(Cc3ccc(F)cc3)Cc3ccco3)cc12 35.5 µM [inhibitor, single point]
O=C(CCc1ccccc1)Nc1ccc(F)cc1F 3.55 µM [activator, partial curve, poor fit]
Cc1cc(N/N=C/c2ccccc2Cl)nc(NCc2ccccc2)n1 35.5 µM [inhibitor, single point]
COc1cc(/C=C2\SC(=O)NC2=O)ccc1Oc1ccc([N+](=O)[O-])cn1 8.91 µM [inhibitor, single point]
Cc1cccc(-n2ncc3c(NCc4ccccc4)ncnc32)c1 35.5 µM [inhibitor, single point]
Clc1ccc(OC2CCN(Cc3nc(CC4CC4)no3)CC2)cc1 15.8 µM [activator, single point]
O=C(CCN1C(=O)/C(=C/c2ccccc2)SC1=S)NCCc1ccc(O)cc1 12.6 µM [inhibitor, single point]
COc1ccc(NC(=O)C2CC(=O)N(C)C(=Nc3ccc4c(c3)OCO4)S2)cc1 (stereo not drawn) 6.31 µM [inhibitor, single point]
COc1ccc(S(=O)(=O)N(C(C)=O)c2ccc(OC(C)=O)c3ccccc23)cc1[N+](=O)[O-] 35.5 µM [inhibitor, single point]
CC(C)(CN=C1NS(=O)(=O)c2ccccc21)CNC(=O)c1ccccc1 0.251 µM [inhibitor, full curve, poor fit]
C/C(=N\NC(=O)c1cccc(S(=O)(=O)N2CCCCC2)c1)c1ccc(C)o1 14.1 µM [inhibitor, single point]
CCOc1ccc(N2CSC(=S)N(c3ccc(OCC)cc3)C2)cc1 12.6 µM [inhibitor, single point]
CC(=O)N(O)C/C=C/c1cccc(Oc2ccccc2)c1 17.8 µM [inhibitor, partial curve, poor fit]
COc1ccc(NC(=S)N(CCc2ccc(OC)c(OC)c2)Cc2ccccn2)cc1 15.8 µM [inhibitor, single point]
COc1ccc(-c2cc(C(=O)N3CCN(S(=O)(=O)c4ccccc4)CC3)[nH]n2)cc1 4.47 µM [activator, full curve]
S=C(NCC(c1ccco1)N1CCCC1)Nc1ccccc1 (stereo not drawn) 0.251 µM [inhibitor, full curve, poor fit]
COc1ccc(N2C(=O)c3ccccc3NC23CCC(C)CC3)cc1 (stereo not drawn) 0.316 µM [activator, full curve, poor fit]

Quoted from the listing for reference:
Potency, inconclusive:
COc1ccc(-c2cc(C(=O)N3CCN(S(=O)(=O)c4ccccc4)CC3)[nH]n2)cc1 4.47 µM [activator, full curve]
S=C(NCC(c1ccco1)N1CCCC1)Nc1ccccc1 (stereo not drawn) 0.251 µM [inhibitor, full curve, poor fit]
COc1ccc(N2C(=O)c3ccccc3NC23CCC(C)CC3)cc1 (stereo not drawn) 0.316 µM [activator, full curve, poor fit]

Next part.

Potency, active:
Cc1cc(C(=O)COC(=O)c2nccnc2N)c(C)n1C 10 µM
O=C(Nc1nnc(-c2ccco2)o1)c1ccc(N2C(=O)CCC2=O)cc1 11.2 µM
C=CCn1c(C23CC4CC(CC(C4)C2)C3)n[nH]c1=S 2.82 µM
Cc1ccc(C(O)(C(=O)NNc2ccc3ccccc3n2)c2ccc(C)cc2)cc1 2.51 µM and 10 µM
S=c1[nH]nc(-c2ccc(Cl)cc2)n1/N=C/c1ccco1 3.16 µM
CCN1C(=O)/C(=C/c2ccc(C)s2)NC1=S 17.8 µM
